Reference: PubChem BioAssay AID2685 (National Center for Advancing Translational Sciences (NCATS), 2010)
This is one part of the list. The main result of the screen is listed elsewhere. These columns were measured beside it and carry no call. Most of these compounds were active or inconclusive in the main read-out, so they are no random draw. The note in brackets gives the kind of curve behind each potency; many fits are weak.

Assay: qHTS Assay for Lipid Storage Modulators in Drosophila S3 Cells;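 on cell number change: cells counted by Cell Tracker Red CMTPX staining in the red channel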
Settings: BODIPY lipid droplet fluorescence, 18-24 h; for cell number change: measured here: cell count max response, cells fed with added oleic acid
Summary of the method: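 Drosophila S3 cells got compounds at several concentrations plus oleic acid (400 uM solution). Laser-scanning cytometry with 488 nm excitation read lipid droplets at 500-530 nm and cells at 575-640 nm. Percent activity was relative to 20 uM Triacsin C.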

[1] = measured here: cell number channel AC50, cells fed with added oleic acid
[2] = measured here: lipid fluorescence (Fed channel) AC50, cells fed with added oleic acid

COC(=O)[C@H](CCSC)NC(=O)Nc1ccc(C(C)C)cc1
cell number change: -36.5% | AC50 [1]: 4.11 µM [falling, full curve, poor fit] | AC50 [2]: 6.51 µM [falling, single point]

CCOc1ccc(S(=O)(=O)N2CCCCC2)cc1NC(=O)CN1C(=O)NC(CC)(c2ccccc2)C1=O (stereo not given)
cell number change: 6.97% | AC50 [2]: 29.1 µM [rising, single point]

CSCCC(NC(=O)c1ccco1)C(=O)OCC(=O)N(Cc1ccccc1)C(C)(C)C (stereo not given)
cell number change: -2.35% | AC50 [2]: 0.164 µM [rising, full curve, poor fit]

CSc1cccc(NC(=O)/C=C/c2cccc(Cl)c2)c1
cell number change: -22.6% | AC50 [2]: 23.1 µM [rising, partial curve, poor fit]

O=S(=O)(c1ccccc1C(F)(F)F)N1CCN(S(=O)(=O)c2ccccc2C(F)(F)F)CC1
cell number change: -21% | AC50 [1]: 0.651 µM [falling, full curve, poor fit]

CCc1cc2c3c(c(=O)oc2cc1O)CCCC3
AC50 [2]: 29.1 µM [falling, single point]

COc1ccc(-c2ccc(=O)n(Cc3cc(=O)n4ccccc4n3)n2)cc1
AC50 [1]: 2.59 µM [rising, partial curve] | AC50 [2]: 2.31 µM [rising, partial curve, poor fit]

O=C(NCc1ccccc1)C(=O)NCC(c1ccco1)N1CCN(c2ccccc2F)CC1 (stereo not given)
cell number change: 5.69% | AC50 [2]: 6.51 µM [falling, single point]

O=C(NC1(C(F)(F)F)NC(=O)N(C2CCCC2)C1=O)C1CC1 (stereo not given)
cell number change: -41.7% | AC50 [1]: 10.3 µM [falling, partial curve] | AC50 [2]: 7.31 µM [falling, partial curve]

COc1ccc(/C=C(/NC(=O)c2ccccc2)C(=O)NC(Cc2c[nH]c3ccccc23)C(=O)O)cc1 (stereo not given)
AC50 [2]: 6.51 µM [falling, single point]

O=C(Nc1cccc(-n2cnnn2)c1)c1cc2ccccc2o1
cell number change: 28.4%

CCN(CC)C(=O)c1[nH]cnc1C(=O)Nc1cccc(C)c1
cell number change: 9.44% | AC50 [2]: 0.116 µM [rising, full curve, poor fit]

Cc1ccc(C(=O)N(CN2CCCC2=O)c2ccccc2)cc1
cell number change: 38.3% | AC50 [1]: 3.26 µM [rising, full curve]

Cn1c(=O)c2c(ncn2CCN(CCO)Cc2ccccc2)n(C)c1=O
cell number change: -20.5% | AC50 [1]: 4.11 µM [falling, single point] | AC50 [2]: 6.51 µM [falling, single point]

FC(F)(F)c1ccc(/C=N/n2c(COc3ccccc3)n[nH]c2=S)cc1
cell number change: -45.2% | AC50 [1]: 11.6 µM [falling, partial curve] | AC50 [2]: 14.6 µM [falling, single point]

COc1cccc(NC(=O)Cc2csc(NC(=O)Nc3ccccc3OC)n2)c1
cell number change: -2.78% | AC50 [2]: 6.51 µM [falling, full curve]

CCOC(=O)CN(C(=O)CSc1nnc2c(n1)[nH]c1ccc(OC)cc12)c1ccc(F)cc1
cell number change: -26.5% | AC50 [2]: 29.1 µM [falling, single point]

O=C(O)CCCN1C(=O)C(=O)/C(=C(/O)c2ccccc2)C1/C=C/c1ccccc1 (stereo not given)
cell number change: 15.4%

CC(=O)c1ccc(OCCCCOc2ccc(C(C)=O)cc2)cc1
AC50 [2]: 29.1 µM [rising, single point]

Cc1ccc(NC(=S)N/N=C2/CCCc3c(C)cc(C)cc32)cc1
cell number change: 68.7% | AC50 [1]: 2.06 µM [rising, full curve]

CCC(C)Nc1nc(-c2c[nH]c3ccccc23)cs1 (stereo not given)
cell number change: -43.7% | AC50 [1]: 20.6 µM [falling, single point] | AC50 [2]: 29.1 µM [falling, single point]

CC(=O)Nc1cccc(C(=O)OCc2ccc(C(=O)Oc3ccc(Cl)cc3)cc2)c1
cell number change: 36.1% | AC50 [1]: 6.51 µM [rising, single point]

COC(=O)c1ccc(OCC(=O)c2ccc(O)cc2O)cc1
cell number change: -27.4% | AC50 [2]: 0.0651 µM [rising, full curve, poor fit]

COc1ccc(NC(=O)NNC(=O)c2ccc3ccccc3c2)cc1OC
cell number change: 24.9% | AC50 [1]: 2.31 µM [rising, full curve, poor fit] | AC50 [2]: 23.1 µM [rising, partial curve]

O=C(NCc1cccnc1)c1ccc(=O)oc1
cell number change: -6.64% | AC50 [2]: 25.9 µM [falling, single point]

Cc1cccc(CSc2nnc(C)c(=O)n2N)c1
cell number change: 14% | AC50 [2]: 2.91 µM [rising, partial curve]

Cc1noc(C)c1C(=O)OCC(=O)Nc1ccc(S(N)(=O)=O)cc1
cell number change: 8.14% | AC50 [2]: 29.1 µM [falling, single point]

Cc1ccc(C2=CC(C)(c3ccc(C)cc3)Nc3nc(C(F)(F)F)nn32)cc1 (stereo not given)
cell number change: 42.4% | AC50 [1]: 4.11 µM [rising, full curve, poor fit] | AC50 [2]: 4.11 µM [rising, full curve]

Cn1c(=N)n(CC(=O)c2ccc(Br)s2)c2ccccc21
cell number change: 1.75% | AC50 [2]: 0.366 µM [falling, single point]

CN(C)S(=O)(=O)c1ccc(N2CCCC2)c(C(=O)N2CCN(S(=O)(=O)c3ccc(F)cc3)CC2)c1
cell number change: -7.07% | AC50 [1]: 0.58 µM [falling, full curve, poor fit]

Cc1cccc(NC(=O)NCCCCc2ccccc2)c1
cell number change: 12% | AC50 [2]: 2.51 µM [rising, partial curve]

O=S(=O)(NCC(c1ccco1)N1CCN(c2ccc(F)cc2)CC1)c1ccc(F)cc1 (stereo not given)
cell number change: -31.2% | AC50 [1]: 20.6 µM [falling, single point] | AC50 [2]: 29.1 µM [falling, single point]

CN1CCc2c(sc(NC(=O)c3ccc4ccccc4c3)c2C(N)=O)C1
cell number change: -34.8% | AC50 [2]: 18.4 µM [falling, partial curve]

O=C(NCCCl)Nc1cccnc1Cl
AC50 [1]: 0.116 µM [falling, full curve, poor fit] | AC50 [2]: 0.366 µM [falling, full curve]

O=C1NCCCCC1NS(=O)(=O)c1ccccc1 (stereo not given)
cell number change: -18.9% | AC50 [2]: 6.51 µM [falling, full curve, poor fit]

CCN(CC(=O)NCc1ccc(Cl)cc1)C(=O)c1ccc2cc(OC)ccc2c1
cell number change: 23.9% | AC50 [2]: 29.1 µM [rising, single point]

O=C(CSc1ccc(Cl)cc1)Nc1ccc(-c2nc3ccccc3[nH]2)cc1
cell number change: -71.5% | AC50 [1]: 23.1 µM [falling, partial curve] | AC50 [2]: 0.731 µM [falling, partial curve, poor fit]

CC(Oc1ccccc1)C(=O)N1CCC2(CC1)CC(=O)c1ccccc1O2 (stereo not given)
cell number change: 2.41%

CC(C)c1ccc(/C=C2\SC(=S)N(CC(=O)NCCCN3CCOCC3)C2=O)cc1
cell number change: 3.85% | AC50 [2]: 5.17 µM [falling, single point]

C(=N\Nc1nnnn1-c1ccccc1)/c1ccncc1
AC50 [2]: 2.91 µM [rising, single point]

COc1ccccc1-c1sc2ccccc2c1-c1ccccc1OC
cell number change: -9.83%

CCS(=O)(=O)c1ccc2oc(Nc3cccc(OC)c3)nc2c1
cell number change: 100% | AC50 [1]: 23.1 µM [rising, single point] | AC50 [2]: 0.00461 µM [falling, full curve, poor fit]

CC1CCCN(C(C(=O)NC2CCCCC2)c2cc3c(cc2[N+](=O)[O-])OCO3)C1 (stereo not given)
cell number change: 2.11% | AC50 [2]: 0.82 µM [rising, full curve, poor fit]

O=C1c2cccc(OCC(=O)N3N=C(c4cccs4)CC3c3ccc(F)cc3)c2CCN1Cc1ccccc1 (stereo not given)
cell number change: 1.68% | AC50 [2]: 0.291 µM [rising, partial curve, poor fit]

COC(=O)CNC(=O)CNC(=O)Nc1ccccc1Cl
cell number change: -2.43% | AC50 [2]: 29.1 µM [falling, single point]

Cc1cccc(C(=O)NC2CCN(C(=O)NCc3ccccc3)CC2)c1
cell number change: -6.96% | AC50 [2]: 29.1 µM [rising, single point]

COc1ccc2nc(NC(=O)C3CC(=O)N(c4ccccc4)C3)sc2c1 (stereo not given)
cell number change: -2.14%

CCCCOCCCNC(=O)C1c2ccccc2Oc2ccccc21
cell number change: -16.2%

CC1(C)CC(=O)C/C(=N\NC(=S)NCc2ccccc2)C1
AC50 [2]: 29.1 µM [rising, single point]

COc1ccccc1NC(=O)Cn1cnc2c(cnn2-c2ccc(C)c(C)c2)c1=O
cell number change: -27.3% | AC50 [2]: 6.51 µM [falling, full curve, poor fit]

CS(=O)(=O)c1ccc([C@@H](O)[C@@H](CO)NC(=O)C(Cl)Cl)cc1
cell number change: 5.05% | AC50 [2]: 6.51 µM [rising, single point]

COc1ccc(CCNC(=O)CN2CCCc3ccccc32)cc1OC
cell number change: -29.7% | AC50 [2]: 23.1 µM [falling, single point]

Cc1cccc(N2CCN(C(=O)CSc3ccc4c(c3)OCCO4)CC2)c1C
cell number change: -14.9% | AC50 [2]: 6.51 µM [falling, single point]

C=C1CCC(N(O)c2cc(C)on2)C(=C)CCC2C1CC2(C)C (stereo not given)
cell number change: 12% | AC50 [1]: 1.16 µM [falling, single point]

N/C(=N\OC(=O)CC1CCCCC1)c1cccc(Br)c1
cell number change: -8.81% | AC50 [2]: 4.61 µM [falling, single point]

COC(=O)c1cc2c(s1)-c1ccccc1OC2
cell number change: -4.83%

CCOC(=O)C1(CC2CC2)CCN(Cc2cn[nH]c2-c2ccccc2)CC1
cell number change: 2.49% | AC50 [2]: 0.58 µM [falling, single point]

CC(C)c1ccc(OCC(O)Cn2cnc3ccccc32)cc1 (stereo not given)
cell number change: -42.3% | AC50 [1]: 29.1 µM [falling, single point] | AC50 [2]: 32.6 µM [falling, single point]
